{"source": "the supplement of paper PMC8877412", "note": "± gives the uncertainty stated by the source. This is a selection; strong and weak results do not stand in their true shares."}
{"tested_on": "NCC-PMP1-C1", "test": "cell viability relative to DMSO control; higher = less growth inhibition", "settings": "10 µM; 72 h", "procedure": "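NCC-PMP1-C1 pseudomyxoma peritonei cells were seeded in 384-well plates coated with Matrigel and MEF (1e4 cells). Viability was read after 72 h by CCK-8 and expressed as % of the DMSO control, mean ± SD of duplicates.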", "units": {"cell viability": "%"}}
{"compound": "COC(=O)[C@H](CCCN=C(N)N)NS(=O)(=O)c1ccc(C)cc1", "cell viability": "89.7 ± 8.9"}
